# Among all 360,000 compounds or so, about 290 (0.081%) were called active. These results got no clear call from the source, so the numbers are uncertain. Calls come from the whole dose curve; as a rule, active = well fitted activation curve with a large enough effect; inconclusive = small, poorly fitted or top-dose-only effect; inactive = no such curve, though single readings can be large or run the other way. Some of these compounds have results that are not shown, active ones among them.
# The chains behind the UniProt entries cited, without tags or fusion partners.
# UniProt Q8WZA2, whole entry: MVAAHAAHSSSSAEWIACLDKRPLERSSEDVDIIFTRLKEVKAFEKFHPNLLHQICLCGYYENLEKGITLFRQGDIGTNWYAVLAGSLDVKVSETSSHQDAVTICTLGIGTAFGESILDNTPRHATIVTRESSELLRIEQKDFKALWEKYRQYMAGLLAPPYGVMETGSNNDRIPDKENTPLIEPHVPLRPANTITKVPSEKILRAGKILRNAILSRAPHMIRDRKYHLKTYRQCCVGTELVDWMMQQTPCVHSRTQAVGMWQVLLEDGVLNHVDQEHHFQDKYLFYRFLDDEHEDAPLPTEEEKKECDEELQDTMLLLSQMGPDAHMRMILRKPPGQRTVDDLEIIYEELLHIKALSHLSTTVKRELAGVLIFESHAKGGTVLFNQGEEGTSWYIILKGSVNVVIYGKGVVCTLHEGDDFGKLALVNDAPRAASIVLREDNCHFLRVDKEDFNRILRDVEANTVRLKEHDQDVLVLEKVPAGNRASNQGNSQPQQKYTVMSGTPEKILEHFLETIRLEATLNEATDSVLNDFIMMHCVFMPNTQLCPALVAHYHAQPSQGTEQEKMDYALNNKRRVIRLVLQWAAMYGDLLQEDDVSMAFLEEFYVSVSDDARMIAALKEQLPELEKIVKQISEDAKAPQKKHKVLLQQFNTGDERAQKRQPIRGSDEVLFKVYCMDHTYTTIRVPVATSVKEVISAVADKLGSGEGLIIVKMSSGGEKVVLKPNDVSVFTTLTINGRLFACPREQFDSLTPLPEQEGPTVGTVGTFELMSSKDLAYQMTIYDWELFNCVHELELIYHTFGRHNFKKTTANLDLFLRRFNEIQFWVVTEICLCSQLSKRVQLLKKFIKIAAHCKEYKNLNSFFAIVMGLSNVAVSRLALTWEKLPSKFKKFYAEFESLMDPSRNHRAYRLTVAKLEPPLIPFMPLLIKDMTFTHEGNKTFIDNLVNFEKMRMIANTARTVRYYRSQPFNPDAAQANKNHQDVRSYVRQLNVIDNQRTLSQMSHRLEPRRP
# Molecular target: Rap guanine nucleotide exchange factor 4 (Homo sapiens) (UniProt Q8WZA2)
# Assay: qHTS for Agonist of cAMP-regulated guanine nucleotide exchange factor 4 (EPAC2): primary screen; note: nearly all actives have a fitted effect of over 50% in size
# Details: EPAC2 activation, biochemical qHTS
# Description: In multi-cellular eukaryotic organisms, the effects of cAMP are transduced by two ubiquitously-expressed intracellular cAMP receptors, the classic protein kinase A/cAMP-dependent protein kinase (PKA/cAPK) and the more recently discovered exchange protein directly activated by cAMP/cAMP-regulated guanine nucleotide exchange factor (EPAC/cAMP-GEF). Both PKA and EPAC are ubiquitously expressed in all tissues, and an increase in intracellular cAMP levels will lead to the activation of both PKA and EPAC. […]
# This qHTS will be used to screen the Molecular Libraries Small Molecule Repository (MLSMR) as a concentration-titration series using the NCGC unique quantitative screening (qHTS) platform to find activators for EPAC2. […] Activators are identified by monitoring the change in fluorescence signal as the exchanged free BODIPY-GDP has a reduced fluorescence compared to Rap1-bound BODIPY-GDP. […]
# Briefly, three uL of reagents (100 nM EPAC2, 250 nM RAP1B-BODIPY-GDP, 50 uM GDP) were dispensed into a 1536-well Greiner black solid-bottom medium binding assay plate. […] The assay plates were read at 5 minute intervals for 30 minutes in the ViewLux plate reader using 480nm excitation and 540nm emission filters. […]
# Potency is the fitted concentration of half-maximal effect.
row,Compound,Potency
1,O=C(OC1CN2CCC1CC2)C(CO)(c1ccccc1)c1ccccc1 (stereo unspecified),inconclusive: 126 µM
